The results in this text go back to PubChem BioAssay AID1347426 (Functional Genomics Laboratory (NCATS/FGL), 2020).

The whole screen tested about 31,000 sequences, of which about 1,400 (4.5%) were called active.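 How the source made its calls: active means median seed-adjusted z-score above 1 or below -1; inactive means the rest.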 This is one part of the list.

The nature of the test: Novel Modifiers of Survival Motor Neuron (SMN) Protein: Gene Identification via Genome-wide siRNA Screen.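 Further: luminescence tracks full-length SMN protein made from the SMN2 reporter.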 Conditions: HEK293T SMN2-luciferase reporter, siRNA knockdown, 72 h; actives lie on both sides. The method in brief:
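Genome-wide siRNA screen (10418 genes, 3 siRNAs each, 1 pmol per well) by reverse transfection in HEK293T cells stably carrying an SMN2-luciferase reporter; luminescence after 72 hours, normalized to negative-control siRNA, log10-transformed, MAD-scored.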
On the technique in general: A reporter such as luciferase makes a cellular process visible.
As for CAGUCUUCCUGGGAAGUAATT against SCAMP5, the median seed-adjusted z-score is inactive: -0.303.

As to GGGCUGUUGUAAUAGUGGATT against SFPQ, the median seed-adjusted z-score is active: -1.15.

As for GGUCCUAAGUUUGAAGUCATT against FRMPD2, the median seed-adjusted z-score was inactive: -0.329.

With ACUGUUUAUUGCUAAAGAATT against P2RY13, the median seed-adjusted z-score is inactive: -0.0427.

On to GGGAAUCCAUAGACGGAAATT against GOLGB1, for which the median seed-adjusted z-score is inactive: 0.0851.

For the sequence ACUUCAACCAGGCACUCAATT against BLOC1S1, the median seed-adjusted z-score was inactive: 0.0692.

In the case of GGCCUACAACUGUGGGUUATT against PIR, the median seed-adjusted z-score was inactive: 0.169.

As to CGCUCGAGGUUAUGGAACATT against ITGA6, the median seed-adjusted z-score was inactive: -0.224.

On to GCACAUGCUUGACUAUCUUTT against ELMO3, for which the median seed-adjusted z-score is inactive: -0.0898.

Turning to GACUAGAAGCUCAACUGAATT against CCNG1, the median seed-adjusted z-score is inactive: 0.131.

As for GCAUUGCCCUUUCCUUCGATT against TEP1, the median seed-adjusted z-score was inactive: -0.495.

Consider GCCUGGACCGUUAACGAUATT against HMCN1, for which the median seed-adjusted z-score was inactive: 0.00218.

As to GGCAUAGCUGGAUCCAGGATT against GPR77, the median seed-adjusted z-score is inactive: 0.

Take GCAGCUUCAAGAUUUGUAATT against C1D: the median seed-adjusted z-score is inactive: 0.021.

For the sequence AGGCUUAUUUUCACAGAAUTT against HRASLS3, the median seed-adjusted z-score is inactive: 0.085.

Turning to GCACGGAGCCUAUUUCGUATT against TAF6L, the median seed-adjusted z-score is inactive: 0.

As for CCCUGCAAGUUACCACAUATT against HYAL4, the median seed-adjusted z-score is inactive: -0.236.

As to GUUUCUACUCGGGAACAAATT against JUND, the median seed-adjusted z-score is inactive: -0.334.

For the sequence GCAUUCGUGUGGGCAAGAATT against ACSBG2, the median seed-adjusted z-score was inactive: 0.027.

Turning to CCCUCUACGUCUCCACCAATT against PROKR2, the median seed-adjusted z-score is inactive: 0.328.

Consider GAAUGGAUUUGGUGGUGAATT against RABL4, for which the median seed-adjusted z-score was inactive: -0.154.

In the case of GAGACAAUAUCUUCCGUAATT against RRAGA, the median seed-adjusted z-score was inactive: 0.511.

Regarding GGCUAUCACUUCAAUGUCATT against NR1I2, the median seed-adjusted z-score is inactive: -0.922.

Regarding CCCAAGCGCAAGAUCCUUATT against SCUBE3, the median seed-adjusted z-score is inactive: 0.152.

Turning to GCUAUGAACUUGACUGGAATT against RASL10A, the median seed-adjusted z-score was inactive: 0.151.

CCUCGACCCUGUUUCUUAUTT against ARL4D: the median seed-adjusted z-score is inactive: -0.523.

GGGUCUUCCUAGCACAUCATT against PPM1D: the median seed-adjusted z-score is inactive: -0.66.

Turning to GGUGAUGAGUGUUCCUACATT against KCNA4, the median seed-adjusted z-score was inactive: -0.634.

Regarding GCACCUCAGAGACCAGUGATT against SSH3, the median seed-adjusted z-score is inactive: -0.0772.

As to AGCGAUCUGUGCUCAACAATT against CACNB3, the median seed-adjusted z-score is inactive: 0.573.

With GGAUAAGACGGUCCGUAAATT against MYO5A, the median seed-adjusted z-score is inactive: 0.00798.

For the sequence UCAUCUUAAAGGACCGAUATT against SEC11B, the median seed-adjusted z-score is active: 1.04.

With GUCAAGAAGUUGUAAGAGATT against PPIG, the median seed-adjusted z-score was inactive: -0.0192.

GGGUGGCAGGUAUAAGACUTT against P2RY11: the median seed-adjusted z-score is inactive: 0.211.

Consider CCUUGAUAACAGUACAGAATT against PHEX, for which the median seed-adjusted z-score is inactive: -0.0314.

As for GCCGAUAUGUACAACAGAATT against TIMM10, the median seed-adjusted z-score is inactive: 0.0738.

With ACUUCAGGAUGGUCGCAGATT against SP140, the median seed-adjusted z-score is inactive: 0.186.

In the case of CCUGCGUCUCUACAACUAUTT against AURKB, the median seed-adjusted z-score was inactive: 0.0901.

Consider UCAGUGCUCUGGACAGUAATT against SMARCD3, for which the median seed-adjusted z-score was inactive: 0.247.

For GGAGAAUGCAAUCCGCUUATT against SVIL, the median seed-adjusted z-score is inactive: 0.0852.

As for GGUUCGCUAUCAGAAGUCATT against GBX2, the median seed-adjusted z-score was inactive: -0.442.

As for AGUUCUACCCUCUAGUGAATT against FZD1, the median seed-adjusted z-score is inactive: -0.163.

Take GCCUCACCUCAAUUGCAAATT against ANP32D: the median seed-adjusted z-score was inactive: -0.714.

GACUGGAAUUGGUAGAAUUTT against SYT9: the median seed-adjusted z-score was inactive: 0.0419.

Take CAAGGAAAGUAUUCCGAAUTT against ZC3HC1: the median seed-adjusted z-score is inactive: -0.859.

Take GAUCAUUAGUUGAAUCGGUTT against PPA2: the median seed-adjusted z-score is inactive: -0.497.

As for GCAUUGCUACUACGAGCUATT against TOMM70A, the median seed-adjusted z-score is inactive: 0.0717.

Regarding GAAUGUCCUAUGAUGCAUATT against HERC5, the median seed-adjusted z-score is inactive: -0.422.

For GGAAAUGUUGGAGAACUCATT against RARA, the median seed-adjusted z-score is inactive: -0.0195.

Turning to ACAGCUACCAAAUAGCGAATT against RAET1G, the median seed-adjusted z-score was inactive: -0.0655.

On to CUACUGAAGUGACACUCUATT against STK36, for which the median seed-adjusted z-score is inactive: -0.0489.

On to CCAUCAUGAUGCUAGCUAUTT against AP3B2, for which the median seed-adjusted z-score was active: -2.45.

Turning to AGACCAUCACCAUAAUUUATT against SEC14L2, the median seed-adjusted z-score is inactive: -0.253.

With CCACAUCUCUACUCGUGAATT against ULK4, the median seed-adjusted z-score was inactive: 0.0834.

Consider CAAACUCCAUAAUACGGUATT against ASH1L, for which the median seed-adjusted z-score is inactive: -0.197.

Consider GGUGUUCCCUUCGUCCGAATT against ALDOC, for which the median seed-adjusted z-score is inactive: 0.119.

Consider GCAAAAAGAGCGAUCAGAATT against CNDP1, for which the median seed-adjusted z-score is inactive: 0.203.

Turning to GGAUCUCAUGAGGCGAAUATT against EIF5, the median seed-adjusted z-score is inactive: 0.362.

Turning to GAUCUUGCAUAGUUUACCATT against AP4B1, the median seed-adjusted z-score was inactive: 0.0278.

In the case of GCCGCAACCUAGACAUCGATT against TUBA4A, the median seed-adjusted z-score is inactive: -0.594.

As for CAAUGACACCUGCAAGUAUTT against CD300A, the median seed-adjusted z-score was inactive: -0.414.

Regarding AGAGAAGACAUAUAGGAGATT against ZNF33A, the median seed-adjusted z-score is inactive: 0.0628.

Turning to GAAUAUGCACUGAAUAUGATT against ZNF484, the median seed-adjusted z-score is inactive: 0.2.

On to CCCUUCUACGUGCUCAACATT against SSTR3, for which the median seed-adjusted z-score was inactive: 0.

For the sequence GGAUCACCUACAUUAGCAATT against TLR2, the median seed-adjusted z-score was inactive: -0.0278.

For the sequence GAGUCAUAGUUGCAGCUGATT against PSMB5, the median seed-adjusted z-score was active: -1.37.

Consider GGAGCGAAAUGUUCAGGUUTT against PSPH, for which the median seed-adjusted z-score was inactive: -0.518.

Consider ACAGAGCAGUUCUCCUUUATT against CRYM, for which the median seed-adjusted z-score was inactive: -0.373.

As for GCGUGUUCGUGCACGUCUATT against MOBKL2A, the median seed-adjusted z-score was inactive: 0.268.

For the sequence GCAUCGCACAGGUGGUCUATT against SLC25A22, the median seed-adjusted z-score was inactive: -0.444.

As to ACUCCUGUAUAUAUUCAAATT against TNFRSF9, the median seed-adjusted z-score is inactive: 0.859.

As to GGACCUUGGUCUUUCCUUGTT against HFE, the median seed-adjusted z-score is inactive: -0.677.

Turning to GCGUGAACCCUGUAUGGAATT against DYSF, the median seed-adjusted z-score was inactive: -0.23.

GGACUACAAAGGUUCUCGATT against CDH18: the median seed-adjusted z-score was inactive: 0.21.

For the sequence GGAUGAGAAUGUUGCGCAUTT against ITGA4, the median seed-adjusted z-score was inactive: 0.

On to GAACGAAAAAGCAUGCACATT against PFDN1, for which the median seed-adjusted z-score is inactive: 0.212.

With UGAGUUAACUAGACCUCAATT against ZNF284, the median seed-adjusted z-score is inactive: 0.21.

As for GCAUGUUCGUGGAGAACAATT against GPRC5C, the median seed-adjusted z-score is inactive: 0.498.

Turning to GGCUGUAACUUGAGUACUUTT against MTERF, the median seed-adjusted z-score is inactive: 0.432.

Consider AGGAGAAUGUGAUCCGAGATT against TXNDC14, for which the median seed-adjusted z-score was active: -2.39.

Consider GCGCCUUCCGAAAAGGACATT against SKI, for which the median seed-adjusted z-score is inactive: -0.139.

As to GGUCCUUGCUUAACCAGGATT against NRIP1, the median seed-adjusted z-score was inactive: 0.789.

As for CUACGUGUAUUAUUGCGCATT against PSAT1, the median seed-adjusted z-score was inactive: -0.706.

With AGCGAGGGUUUUCAAUGAATT against NOG, the median seed-adjusted z-score is inactive: 0.328.

GAGUUCAUCUCGGAAUGCATT against MB: the median seed-adjusted z-score was inactive: 0.504.

ACAUGAGAAUGAUGCUGCUTT against LOXL4: the median seed-adjusted z-score was inactive: -0.591.

Turning to GCAACAACCGGGUGAGAGATT against RHPN1, the median seed-adjusted z-score is inactive: 0.161.

In the case of GCAUCUCGAGGGACUGUAATT against SCN11A, the median seed-adjusted z-score is inactive: 0.196.

Consider CAAGUUUAAGGAAACUGAATT against CRY2, for which the median seed-adjusted z-score is inactive: 0.0209.

Turning to CGAAAACUGAUACACUUGATT against KSR2, the median seed-adjusted z-score is inactive: -0.371.

On to GGAUCUGCCUGGUACAACUTT against ARIH1, for which the median seed-adjusted z-score is inactive: -0.443.

AGACGAAGGUUAUUGAUCATT against RBP2: the median seed-adjusted z-score is inactive: 0.0132.

Consider GGCUAUUACGACUACAACATT against FOXRED1, for which the median seed-adjusted z-score was inactive: 0.447.

In the case of GUGUAGUCCCAAUCUCUAATT against WFDC3, the median seed-adjusted z-score was inactive: -0.644.

Turning to GCAUUGGGAAGAUACUGGATT against GALNS, the median seed-adjusted z-score was inactive: 0.0287.

Take GCCUUGAUCAUCAAACUCATT against KCNK17: the median seed-adjusted z-score is inactive: -0.579.

As to GCAUACAUAUGGUAUAGCATT against DDX20, the median seed-adjusted z-score was inactive: -0.0137.

Consider GAGAUUACAUCAUUAGAGATT against PRKG2, for which the median seed-adjusted z-score was inactive: 0.272.

Take GGAACUUCCAUGCCUCUAATT against ATP5A1: the median seed-adjusted z-score is inactive: -0.974.

In the case of GAACAUCGCCGCAUCCACATT against ZNF574, the median seed-adjusted z-score was inactive: -0.528.

As to GGAUCCCAAUUCUGGGUAATT against DOK1, the median seed-adjusted z-score was inactive: 0.0532.

For ACGGGAACAUGUACAUUGATT against SIRT7, the median seed-adjusted z-score is inactive: -0.427.

As for GGUGUUUUCAGGACCAGGATT against TNFRSF9, the median seed-adjusted z-score was inactive: 0.859.

Consider CAUCAACUAUAUCACAGUATT against ATP13A5, for which the median seed-adjusted z-score is inactive: 0.241.

As to CACGUGCAGAGUGUCGAUATT against EEF1D, the median seed-adjusted z-score is inactive: 0.421.

On to CACCAAGAGUGAAAUUGCATT against KRT4, for which the median seed-adjusted z-score was inactive: 0.336.

Consider GGCCUUCAUUGGGAACUUUTT against FMNL2, for which the median seed-adjusted z-score is inactive: 0.293.
